This passage reports binding results from paper PMC9616806.

Protein sequences, listed by entry. Tags and fused reporters are not part of them.
UniProt E9Q6J5: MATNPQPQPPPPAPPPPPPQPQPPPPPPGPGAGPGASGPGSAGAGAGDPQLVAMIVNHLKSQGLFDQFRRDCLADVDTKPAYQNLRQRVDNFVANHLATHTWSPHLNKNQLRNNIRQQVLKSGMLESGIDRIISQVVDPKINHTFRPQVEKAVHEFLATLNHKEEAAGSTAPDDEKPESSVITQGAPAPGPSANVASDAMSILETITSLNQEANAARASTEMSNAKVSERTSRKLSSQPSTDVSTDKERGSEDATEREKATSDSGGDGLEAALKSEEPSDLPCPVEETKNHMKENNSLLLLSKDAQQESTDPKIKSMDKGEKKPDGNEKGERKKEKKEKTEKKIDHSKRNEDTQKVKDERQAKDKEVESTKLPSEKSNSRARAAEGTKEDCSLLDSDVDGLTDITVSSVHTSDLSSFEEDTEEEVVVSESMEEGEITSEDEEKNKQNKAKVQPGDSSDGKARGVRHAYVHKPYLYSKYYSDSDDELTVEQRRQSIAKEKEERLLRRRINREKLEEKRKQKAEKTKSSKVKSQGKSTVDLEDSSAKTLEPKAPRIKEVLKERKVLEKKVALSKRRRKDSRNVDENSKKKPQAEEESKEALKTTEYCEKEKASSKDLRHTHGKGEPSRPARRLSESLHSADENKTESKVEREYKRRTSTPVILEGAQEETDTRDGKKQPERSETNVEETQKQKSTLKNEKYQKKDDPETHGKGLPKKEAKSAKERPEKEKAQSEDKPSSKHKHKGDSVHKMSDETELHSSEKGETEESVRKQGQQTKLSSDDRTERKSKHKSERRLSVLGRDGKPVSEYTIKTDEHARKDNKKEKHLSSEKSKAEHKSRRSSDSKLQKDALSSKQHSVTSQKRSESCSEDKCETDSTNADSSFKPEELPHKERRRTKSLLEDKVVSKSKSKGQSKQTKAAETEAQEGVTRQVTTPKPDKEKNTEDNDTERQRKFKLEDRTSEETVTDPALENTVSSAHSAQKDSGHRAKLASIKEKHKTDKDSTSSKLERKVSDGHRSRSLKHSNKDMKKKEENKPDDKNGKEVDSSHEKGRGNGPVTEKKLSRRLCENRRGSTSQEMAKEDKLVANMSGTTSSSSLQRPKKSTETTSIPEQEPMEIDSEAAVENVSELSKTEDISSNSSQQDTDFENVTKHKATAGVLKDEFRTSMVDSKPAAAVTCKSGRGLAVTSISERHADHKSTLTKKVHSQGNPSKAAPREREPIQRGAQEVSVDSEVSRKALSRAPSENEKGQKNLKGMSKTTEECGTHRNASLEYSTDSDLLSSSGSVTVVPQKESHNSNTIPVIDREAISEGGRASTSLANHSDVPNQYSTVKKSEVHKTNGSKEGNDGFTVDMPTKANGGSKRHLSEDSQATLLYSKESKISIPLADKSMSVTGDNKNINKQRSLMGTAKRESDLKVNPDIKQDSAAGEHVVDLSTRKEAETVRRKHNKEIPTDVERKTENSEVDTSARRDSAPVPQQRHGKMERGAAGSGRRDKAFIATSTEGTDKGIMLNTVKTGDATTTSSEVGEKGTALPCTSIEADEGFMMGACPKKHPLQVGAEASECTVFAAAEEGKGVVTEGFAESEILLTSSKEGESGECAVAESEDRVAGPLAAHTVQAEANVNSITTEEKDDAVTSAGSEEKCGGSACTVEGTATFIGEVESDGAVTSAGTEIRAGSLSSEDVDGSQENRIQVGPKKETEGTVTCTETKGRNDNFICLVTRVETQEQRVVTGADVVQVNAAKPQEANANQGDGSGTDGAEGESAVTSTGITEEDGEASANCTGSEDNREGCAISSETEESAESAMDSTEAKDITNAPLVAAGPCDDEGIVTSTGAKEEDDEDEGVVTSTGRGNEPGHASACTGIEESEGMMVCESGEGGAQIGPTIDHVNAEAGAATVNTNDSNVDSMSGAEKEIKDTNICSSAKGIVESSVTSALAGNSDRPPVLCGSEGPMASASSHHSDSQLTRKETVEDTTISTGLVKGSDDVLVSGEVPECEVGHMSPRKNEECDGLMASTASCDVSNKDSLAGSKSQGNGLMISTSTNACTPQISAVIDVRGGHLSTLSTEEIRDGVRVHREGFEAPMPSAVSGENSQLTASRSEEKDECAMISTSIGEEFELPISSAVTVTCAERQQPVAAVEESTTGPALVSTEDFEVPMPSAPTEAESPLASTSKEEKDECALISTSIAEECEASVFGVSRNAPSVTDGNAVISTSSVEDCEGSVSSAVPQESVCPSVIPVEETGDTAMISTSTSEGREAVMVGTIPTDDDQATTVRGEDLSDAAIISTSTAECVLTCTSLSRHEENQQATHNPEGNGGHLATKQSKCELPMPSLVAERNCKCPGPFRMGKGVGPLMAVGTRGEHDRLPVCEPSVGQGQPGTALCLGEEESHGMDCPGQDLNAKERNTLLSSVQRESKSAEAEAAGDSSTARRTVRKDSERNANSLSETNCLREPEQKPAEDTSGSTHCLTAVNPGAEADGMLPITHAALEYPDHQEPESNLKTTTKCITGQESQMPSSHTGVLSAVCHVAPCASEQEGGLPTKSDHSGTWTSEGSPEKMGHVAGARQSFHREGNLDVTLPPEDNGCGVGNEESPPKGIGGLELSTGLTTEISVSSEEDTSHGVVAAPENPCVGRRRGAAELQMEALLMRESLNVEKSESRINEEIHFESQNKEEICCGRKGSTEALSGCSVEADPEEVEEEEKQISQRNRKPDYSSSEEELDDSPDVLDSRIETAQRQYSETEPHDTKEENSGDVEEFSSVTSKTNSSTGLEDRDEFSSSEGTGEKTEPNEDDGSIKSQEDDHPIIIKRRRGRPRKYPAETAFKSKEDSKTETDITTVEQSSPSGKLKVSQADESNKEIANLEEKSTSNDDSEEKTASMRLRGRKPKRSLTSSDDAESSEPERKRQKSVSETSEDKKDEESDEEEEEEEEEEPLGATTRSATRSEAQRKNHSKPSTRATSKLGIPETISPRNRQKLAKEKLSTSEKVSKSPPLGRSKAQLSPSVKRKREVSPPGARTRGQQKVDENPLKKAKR
UniProt Q9UBL3: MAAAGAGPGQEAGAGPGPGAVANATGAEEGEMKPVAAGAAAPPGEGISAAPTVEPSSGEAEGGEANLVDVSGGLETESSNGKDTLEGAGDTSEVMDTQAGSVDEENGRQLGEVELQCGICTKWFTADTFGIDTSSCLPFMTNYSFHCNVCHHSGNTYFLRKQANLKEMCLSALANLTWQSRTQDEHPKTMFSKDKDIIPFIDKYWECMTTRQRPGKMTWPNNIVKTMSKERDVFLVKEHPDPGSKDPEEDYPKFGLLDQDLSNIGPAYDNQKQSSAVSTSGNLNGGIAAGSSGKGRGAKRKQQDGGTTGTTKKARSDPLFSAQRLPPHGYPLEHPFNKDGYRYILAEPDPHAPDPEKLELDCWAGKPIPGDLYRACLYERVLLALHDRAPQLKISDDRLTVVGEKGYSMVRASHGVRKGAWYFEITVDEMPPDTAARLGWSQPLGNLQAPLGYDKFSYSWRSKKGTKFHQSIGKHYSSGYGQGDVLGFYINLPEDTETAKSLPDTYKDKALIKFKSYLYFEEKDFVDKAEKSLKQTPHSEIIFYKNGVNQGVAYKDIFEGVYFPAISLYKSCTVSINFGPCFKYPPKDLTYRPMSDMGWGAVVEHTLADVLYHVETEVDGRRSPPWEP
UniProt Q9P0U4: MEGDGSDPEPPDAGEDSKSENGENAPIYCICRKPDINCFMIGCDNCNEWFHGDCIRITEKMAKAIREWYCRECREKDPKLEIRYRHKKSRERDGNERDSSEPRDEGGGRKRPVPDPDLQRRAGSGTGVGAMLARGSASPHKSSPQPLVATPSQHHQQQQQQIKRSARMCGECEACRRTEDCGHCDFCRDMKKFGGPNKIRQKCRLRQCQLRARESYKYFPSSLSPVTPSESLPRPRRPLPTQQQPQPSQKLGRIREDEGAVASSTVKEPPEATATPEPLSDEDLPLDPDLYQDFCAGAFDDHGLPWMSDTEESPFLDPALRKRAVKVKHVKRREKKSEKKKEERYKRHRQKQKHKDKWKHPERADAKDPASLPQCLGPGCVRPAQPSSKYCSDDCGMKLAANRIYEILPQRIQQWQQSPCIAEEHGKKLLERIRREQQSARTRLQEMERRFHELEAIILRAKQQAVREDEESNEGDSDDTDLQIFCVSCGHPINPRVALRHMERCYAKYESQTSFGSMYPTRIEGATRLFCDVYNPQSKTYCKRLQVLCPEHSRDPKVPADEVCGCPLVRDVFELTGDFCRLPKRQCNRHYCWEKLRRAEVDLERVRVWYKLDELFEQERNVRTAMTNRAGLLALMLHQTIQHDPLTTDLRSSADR
UniProt Q15291: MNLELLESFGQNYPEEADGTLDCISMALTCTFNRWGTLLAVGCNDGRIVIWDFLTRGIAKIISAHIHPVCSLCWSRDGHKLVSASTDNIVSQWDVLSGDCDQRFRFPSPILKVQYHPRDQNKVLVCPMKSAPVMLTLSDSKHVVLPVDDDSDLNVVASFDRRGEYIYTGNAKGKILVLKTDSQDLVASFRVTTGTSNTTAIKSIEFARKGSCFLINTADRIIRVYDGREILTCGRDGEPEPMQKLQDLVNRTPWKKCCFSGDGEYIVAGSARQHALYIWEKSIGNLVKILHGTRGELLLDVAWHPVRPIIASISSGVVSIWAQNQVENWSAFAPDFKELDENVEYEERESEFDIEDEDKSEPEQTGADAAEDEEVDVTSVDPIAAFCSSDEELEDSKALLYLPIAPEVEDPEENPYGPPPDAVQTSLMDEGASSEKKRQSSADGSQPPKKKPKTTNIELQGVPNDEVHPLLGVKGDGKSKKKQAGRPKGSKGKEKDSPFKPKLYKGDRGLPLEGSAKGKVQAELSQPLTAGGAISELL
UniProt O15047: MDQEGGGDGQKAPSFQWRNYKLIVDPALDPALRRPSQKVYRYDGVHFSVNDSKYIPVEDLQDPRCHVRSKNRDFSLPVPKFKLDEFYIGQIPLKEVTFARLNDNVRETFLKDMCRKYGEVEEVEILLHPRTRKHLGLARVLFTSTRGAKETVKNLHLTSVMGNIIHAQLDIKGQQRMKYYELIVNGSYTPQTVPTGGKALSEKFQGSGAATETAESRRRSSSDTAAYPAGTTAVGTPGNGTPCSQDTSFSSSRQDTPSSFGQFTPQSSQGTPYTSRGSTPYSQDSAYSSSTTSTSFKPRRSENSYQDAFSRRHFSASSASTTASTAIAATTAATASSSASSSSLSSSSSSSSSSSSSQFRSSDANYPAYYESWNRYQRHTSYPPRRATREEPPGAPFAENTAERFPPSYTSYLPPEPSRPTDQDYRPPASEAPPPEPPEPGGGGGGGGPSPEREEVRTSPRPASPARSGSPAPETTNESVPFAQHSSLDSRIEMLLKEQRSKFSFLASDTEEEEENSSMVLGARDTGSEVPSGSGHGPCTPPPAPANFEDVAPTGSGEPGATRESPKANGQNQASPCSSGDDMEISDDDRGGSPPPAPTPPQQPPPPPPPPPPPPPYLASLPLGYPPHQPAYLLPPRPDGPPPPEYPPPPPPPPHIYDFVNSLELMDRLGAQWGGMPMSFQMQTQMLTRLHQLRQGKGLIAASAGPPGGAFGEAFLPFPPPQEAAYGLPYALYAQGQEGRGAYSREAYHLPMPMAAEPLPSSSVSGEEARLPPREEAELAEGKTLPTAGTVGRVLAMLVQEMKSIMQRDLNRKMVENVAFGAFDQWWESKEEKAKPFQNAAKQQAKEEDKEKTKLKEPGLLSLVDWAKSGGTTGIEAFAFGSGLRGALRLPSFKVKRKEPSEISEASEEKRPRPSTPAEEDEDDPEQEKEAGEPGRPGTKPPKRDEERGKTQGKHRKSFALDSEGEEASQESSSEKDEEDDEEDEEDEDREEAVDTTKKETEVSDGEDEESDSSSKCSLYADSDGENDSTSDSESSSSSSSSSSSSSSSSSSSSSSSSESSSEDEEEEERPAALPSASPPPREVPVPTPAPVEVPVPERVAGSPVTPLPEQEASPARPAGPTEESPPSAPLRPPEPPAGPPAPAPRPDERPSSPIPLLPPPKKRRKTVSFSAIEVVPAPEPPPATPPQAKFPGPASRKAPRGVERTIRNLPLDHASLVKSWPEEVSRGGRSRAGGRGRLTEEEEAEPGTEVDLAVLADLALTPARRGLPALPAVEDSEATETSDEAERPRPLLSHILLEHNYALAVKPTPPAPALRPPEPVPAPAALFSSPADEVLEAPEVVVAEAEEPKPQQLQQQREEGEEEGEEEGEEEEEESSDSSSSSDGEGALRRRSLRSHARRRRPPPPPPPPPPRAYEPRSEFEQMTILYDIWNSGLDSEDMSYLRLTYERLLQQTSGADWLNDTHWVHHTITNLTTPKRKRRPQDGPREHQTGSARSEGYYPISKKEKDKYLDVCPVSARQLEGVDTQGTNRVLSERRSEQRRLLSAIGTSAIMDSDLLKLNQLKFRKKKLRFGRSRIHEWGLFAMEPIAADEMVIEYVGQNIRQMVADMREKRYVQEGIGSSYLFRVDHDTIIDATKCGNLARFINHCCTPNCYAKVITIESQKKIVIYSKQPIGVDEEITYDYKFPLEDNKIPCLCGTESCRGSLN

This assay addresses murine BOD1L-GFP (mouse) (UniProt E9Q6J5). In words: affinity purification with mass spectrometry; lysates of HeLa-C-Flap-BOD1L cells (control HeLa-C-Flap) in benzonase lysis buffer, anti-Flag affinity agarose 4 h at 4 C, washes with 300 mM NaCl, 1% CHAPS; gel slices, trypsin, Orbitrap.

These are yes or no findings as the source states them, for the method shown. Binding seen in cells or lysates may run through a third protein. A yes stands for co-enrichment or nearness to the bait. Other partners may have been found.

For the substance ASH2L (from UniProt Q9UBL3 1-628), the binding result is recorded as “binds”.
Consider CXXC1 (from UniProt Q9P0U4 1-656), for which the binding result is given as “binds”.
As for RBBP5 (from UniProt Q15291 1-538), the entry is “binds”; as for RIF1 (from UniProt Q5UIP0 1-2472), “binds”.
As for SETD1A (from UniProt O15047 1-1707), the entry is “binds”.
